Source: patent US20170008834A1, “FUMARATE COMPOUNDS, PHARMACEUTICAL COMPOSITIONS THEREOF, AND METHODS OF USE” (priority 2015, published 2017)
Some results were stated once for a whole list of compounds, not compound by compound.

Experiments:
[1] = Stability of fumarate compounds in PBS buffer; type: physicochemical; settings: PBS 50 mM, pH 7.0 to 7.4, with DMSO or DMF, 20 to 37° C., 60 min, HPLC
porcine liver esterase = experiment: Hydrolysis of fumarate compounds in vitro by porcine liver esterase; type: in vitro ADME; settings: porcine liver esterase in PBS buffer pH 7.0 to 8.0, 20 to 37° C., ca. 24 h, HPLC

Row | SMILES | stable in PBS buffer [1] [%] | converted to monoester fumarates and/or fumaric acid (porcine liver esterase) [%]
1 | CCNC(=O)NCCOC(=O)/C=C/C(=O)OCCNC(=O)NCC [Compound 1, Bis[2-(ethylcarbamoylamino)ethyl] (E)-but-2-enedioate] | > 90 | > 15
2 | CC(C)NC(=O)NCCOC(=O)/C=C/C(=O)OCCNC(=O)NC(C)C [Compound 2, Bis[2-(isopropylcarbamoylamino)ethyl] (E)-but-2-enedioate] | > 90 | > 15
3 | O=C(NCCOC(=O)/C=C/C(=O)OCCNC(=O)NC1CCCCC1)NC1CCCCC1 [Compound 3, Bis[2-(cyclohexylcarbamoylamino)ethyl] (E)-but-2-enedioate] | > 90 | > 15
4 | O=C(NCCOC(=O)/C=C/C(=O)OCCNC(=O)Nc1ccccc1)Nc1ccccc1 [Compound 4, Bis[2-(phenylcarbamoylamino)ethyl] (E)-but-2-enedioate] | > 90 | > 15
5 | CCNC(=O)N(C)CCOC(=O)/C=C/C(=O)OCCN(C)C(=O)NCC [Compound 5, Bis[2-[ethylcarbamoyl(methyl)amino]ethyl] (E)-but-2-enedioate] | > 90 | > 15
6 | CCNC(=O)N[C@H](C)COC(=O)/C=C/C(=O)OC[C@@H](C)NC(=O)NCC [Compound 6, Bis[(2R)-2-(ethylcarbamoylamino)propyl] (E)-but-2-enedioate] | > 90 | > 15
7 | CC(C)NC(=O)N[C@H](C)COC(=O)/C=C/C(=O)OC[C@@H](C)NC(=O)NC(C)C [Compound 7, Bis[(2R)-2-(isopropylcarbamoylamino)propyl] (E)-but-2-enedioate] | > 90 | > 15
8 | C[C@H](COC(=O)/C=C/C(=O)OC[C@@H](C)NC(=O)NC1CCCCC1)NC(=O)NC1CCCCC1 [Compound 8, Bis[(2R)-2-(cyclohexylcarbamoylamino)propyl] (E)-but-2-enedioate] | > 90 | > 15
9 | C[C@H](COC(=O)/C=C/C(=O)OC[C@@H](C)NC(=O)Nc1ccccc1)NC(=O)Nc1ccccc1 [Compound 9, Bis[(2R)-2-(phenylcarbamoylamino)propyl] (E)-but-2-enedioate] | > 90 | > 15
10 | CCNC(=O)N(CC)CCOC(=O)/C=C/C(=O)OCCN(CC)C(=O)NCC [Compound 10, Bis[2-[ethyl(ethylcarbamoyl)amino]ethyl] (E)-but-2-enedioate] | > 90 | > 15
11 | CCNC(=O)N[C@@H](C)COC(=O)/C=C/C(=O)OC[C@H](C)NC(=O)NCC [Compound 11, Bis[(2S)-2-(ethylcarbamoylamino)propyl] (E)-but-2-enedioate] | > 90 | > 15
12 | CC(C)NC(=O)N[C@@H](C)COC(=O)/C=C/C(=O)OC[C@H](C)NC(=O)NC(C)C [Compound 12, Bis[(2S)-2-(isopropylcarbamoylamino)propyl] (E)-but-2-enedioate] | > 90 | > 15
13 | C[C@@H](COC(=O)/C=C/C(=O)OC[C@H](C)NC(=O)NC1CCCCC1)NC(=O)NC1CCCCC1 [Compound 13, Bis[(2S)-2-(cyclohexylcarbamoylamino)propyl] (E)-but-2-enedioate] | > 90 | > 15
14 | C[C@@H](COC(=O)/C=C/C(=O)OC[C@H](C)NC(=O)Nc1ccccc1)NC(=O)Nc1ccccc1 [Compound 14, Bis[(2S)-2-(phenylcarbamoylamino)propyl] (E)-but-2-enedioate] | > 90 | > 15
15 | CCNC(=O)NCCCOC(=O)/C=C/C(=O)OCCCNC(=O)NCC [Compound 15, Bis[3-(ethylcarbamoylamino)propyl] (E)-but-2-enedioate] | > 90 | > 15
16 | CC(C)NC(=O)NCCCOC(=O)/C=C/C(=O)OCCCNC(=O)NC(C)C [Compound 16, Bis[3-(isopropylcarbamoylamino)propyl] (E)-but-2-enedioate] | > 90 | > 15
17 | O=C(NCCCOC(=O)/C=C/C(=O)OCCCNC(=O)NC1CCCCC1)NC1CCCCC1 [Compound 17, Bis[3-(cyclohexylcarbamoylamino)propyl] (E)-but-2-enedioate] | > 90 | > 15
18 | O=C(NCCCOC(=O)/C=C/C(=O)OCCCNC(=O)Nc1ccccc1)Nc1ccccc1 [Compound 18, Bis[3-(phenylcarbamoylamino)propyl] (E)-but-2-enedioate] | > 90 | > 15
